# Data published in publication PMC8605323.
# No constants are given. Whether binding was seen depends on the method and setting.
# B1: full-length mouse Irgb6 (enzyme, UniProt Q3T9E4 1-415)
# chain: GPMAWASSFDAFFKNFKRESKIISEYDITLIMTYIEENKLQKAVSVIEKVLRDIESAPLHIAVTGETGAGKSTFINTLRGVGHEEKGAAPTGAIETTMKRTPYPHPKLPNVTIWDLPGIGTTNFTPQNYLTEMKFGEYDFFIIISATRFKENDAQLAKAIAQMGMNFYFVRTKIDSDLDNEQKFKPKSFNKEEVLKNIKDYCSNHLQESLDSEPPVFLVSNVDISKYDFPKLETKLLQDLPAHKRHVFSLSLQSLTEATINYKRDSLKQKVFLEAMKAGALATIPLGGMISDILENLDETFNLYRSYFGLDDASLENIAQDLNMSVDDFKVHLRFPHLFAEHNDESLEDKLFKYIKHISSVTGGPVAAVTYYRMAYYLQNLFLDTAANDAIALLNSKALFEKKVGPYISEPPEYWEA
# Molecular target: full-length mouse Irgb6 (Mus musculus) (UniProt Q3T9E4)
# Assay: SEC; HiLoad 16/600 Superdex 75 pg column, 50 mM HEPES-KOH pH 7.5, 150 mM NaCl, 5 mM MgCl2, 2 mM dithiothreitol, 4°C; Irgb6 eluted at about 47 kD; both purified
binder,measurement,value
B1,binding,no binding
